# In the supplement of paper PMC8728848:
# The list shows a part of the results.
# B1: MIC2 (Toxoplasma gondii), S8F9G8 (protein)
# chain: MRLQREAVFGLMFACGMWMWPSEVAGGGWSIVDALRKRYDTSRGGDANGVDTSGVEDVIQSESAIGAAEGCTNQLDICFLIDSSGSIGIQNFRLVKQFLHTFLMVLPIGPEEVNNAVVTYSTDVHLQWDLQSPNAVDKQLAAHAVLDMPYKKGSTNTSDGLKACKQILFTGSRPGREHVPKLVIGMTDGESDSDFRTVRAAKEIRELGGIVTVLAVGHYVKHSECRSMCGCSGTSDDDSPCPLYLRADWGQLATAIKPMLKEVCKTLPQDAICSDWSAWSPCSVSCGDGSQIRTRTEVSAPQPGTPTCPDCPAPMGRTCVEQGGLEEIRECSAGVCAVDAGCGVWGEWSAWSASCGNATRKRERTRYNDPPPQGAGRRCENQDPPVLQEQTEEATLAPCITIPPTPPEWAAWSDCTVTCGGGNRHRVRNALPPGLGSQNGESDESLVSKLWPGTDLRQEEACNTSPCPINATCGQFEEWSTCSVSCGGGLKTRSRNPWNEDQQHGGLSCEQQHPGGRTETITCNPQACPVDERPGEWAEWGECSVTCGDGVRERRRGKSLVEAKFGGRTIDQQNEALPEDLKIKNVEYEPCSYPACGASCTYVWSDWNKCVCPMGYQARHAAVKFDYRNKPCDLPTFETKACSCGETNPVPSEGTTPGAPGATGPEQPNQRPLPEGSDENETPTNEEGEQSKKESGSGIAGAIAGGVIGGLILLGAAGGASYHYYLSSSVGSPSAEIEYEADDGATKVVMEEEKETLVPVDDDSDMWME
# Legend:
# Assay in all cases: glycan array binding signal (z-score within array); higher = stronger binding
# Conditions in all cases: glycan notation: IUPAC condensed, linker removed
# [1] = molecular target: GlcNAc(a1-4)Gal(b1-4)GalNAc
# How it was run: (§1)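 Columns mapping to the same glycan were averaged after glycan names were converted to IUPAC-condensed notation. The data come from 3228 arrays in the Consortium for Functional Glycomics database, limited to those with an available protein sequence. Binding is reported as a within-array Z-score averaged across arrays of one protein sequence and across linkers.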
# [2] = molecular target: GlcNAc(a1-4)Gal(b1-4)GlcNAc
# How it was run: as §1
# [3] = molecular target: GlcNAc(a1-4)Gal(b1-4)GlcNAc(b1-3)Gal(b1-4)Glc
# How it was run: as §1
# [4] = molecular target: GlcNAc(a1-4)Gal(b1-4)GlcNAc(b1-3)Gal(b1-4)GlcNAc
# How it was run: as §1
# [5] = molecular target: GlcNAc(a1-4)Gal(b1-4)GlcNAc(b1-3)Gal(b1-4)GlcNAc(b1-3)Gal(b1-4)GlcNAc
# How it was run: as §1
# [6] = molecular target: GlcNAc(a1-4)Gal(b1-4)GlcNAc(b1-3)Gal(b1-4)[Fuc(a1-3)]GlcNAc(b1-3)Gal(b1-4)[Fuc(a1-3)]GlcNAc
# How it was run: as §1
# [7] = molecular target: GlcNAc(a1-6)Gal(b1-4)GlcNAc
# How it was run: as §1
# [8] = molecular target: GlcNAc(b1-2)Gal(b1-3)GalNAc
# How it was run: as §1
# [9] = molecular target: GlcNAc(b1-2)Man(a1-3)[GlcNAc(b1-2)Man(a1-6)]Man(b1-4)GlcNAc(b1-4)GlcNAc
# How it was run: as §1
# [10] = molecular target: GlcNAc(b1-2)Man(a1-3)[GlcNAc(b1-2)Man(a1-6)]Man(b1-4)GlcNAc(b1-4)[Fuc(a1-6)]GlcNAc
# How it was run: as §1
# [11] = molecular target: GlcNAc(b1-2)[GlcNAc(b1-4)]Man(a1-3)[GlcNAc(b1-2)Man(a1-6)]Man(b1-4)GlcNAc(b1-4)GlcNAc
# How it was run: as §1
# [12] = molecular target: GlcNAc(b1-3)Gal
# How it was run: as §1
# [13] = molecular target: GlcNAc(b1-3)Gal(b1-3)GalNAc
# How it was run: as §1
# [14] = molecular target: GlcNAc(b1-3)Gal(b1-4)Glc
# How it was run: as §1
# [15] = molecular target: GlcNAc(b1-3)Gal(b1-4)GlcNAc
# How it was run: as §1
# [16] = molecular target: GlcNAc(b1-3)Gal(b1-4)GlcNAc(b1-3)Gal(b1-4)GlcNAc
# How it was run: as §1
# [17] = molecular target: GlcNAc(b1-3)GalNAc
# How it was run: as §1
# [18] = molecular target: GlcNAc(b1-3)Man
# How it was run: as §1
# [19] = molecular target: GlcNAc(b1-3)[GlcNAc(b1-4)][GlcNAc(b1-6)]GlcNAc
# How it was run: as §1
# [20] = molecular target: GlcNAc(b1-3)[GlcNAc(b1-6)]Gal(b1-4)GlcNAc
# How it was run: as §1
# [21] = molecular target: GlcNAc(b1-3)[GlcNAc(b1-6)]GalNAc
# How it was run: as §1
# [22] = molecular target: GlcNAc(b1-4)Gal(b1-4)GlcNAc
# How it was run: as §1
# [23] = molecular target: GlcNAc(b1-4)GlcNAc
# How it was run: as §1
# [24] = molecular target: GlcNAc(b1-4)GlcNAc(b1-4)GlcNAc
# How it was run: as §1
# [25] = molecular target: GlcNAc(b1-4)GlcNAc(b1-4)GlcNAc(b1-4)GlcNAc(b1-4)GlcNAc
# How it was run: as §1
# [26] = molecular target: GlcNAc(b1-4)GlcNAc(b1-4)GlcNAc(b1-4)GlcNAc(b1-4)GlcNAc(b1-4)GlcNAc
# How it was run: as §1
# [27] = molecular target: GlcNAc(b1-4)[GlcNAc(b1-6)]GalNAc
# How it was run: as §1
# [28] = molecular target: GlcNAc(b1-6)Gal(b1-4)GlcNAc
# How it was run: as §1
# [29] = molecular target: GlcNAc(b1-6)GalNAc
# How it was run: as §1
# [30] = molecular target: GlcNAc3Prop(b1-4)GlcNAc
# How it was run: as §1
binder,measurement,setting,value
B1,glycan array binding signal (z-score),[1],0.632
same,glycan array binding signal (z-score),[2],-0.232
same,glycan array binding signal (z-score),[3],-0.113
same,glycan array binding signal (z-score),[4],0.748
same,glycan array binding signal (z-score),[5],0.145
same,glycan array binding signal (z-score),[6],3.35
same,glycan array binding signal (z-score),[7],-1.04
same,glycan array binding signal (z-score),[8],-0.003
same,glycan array binding signal (z-score),[9],-0.726
same,glycan array binding signal (z-score),[10],4
same,glycan array binding signal (z-score),[11],-0.71
same,glycan array binding signal (z-score),[12],0.042
same,glycan array binding signal (z-score),[13],1.7
same,glycan array binding signal (z-score),[14],-1
same,glycan array binding signal (z-score),[15],-0.053
same,glycan array binding signal (z-score),[16],-0.403
same,glycan array binding signal (z-score),[17],0.017
same,glycan array binding signal (z-score),[18],-0.817
same,glycan array binding signal (z-score),[19],-0.199
same,glycan array binding signal (z-score),[20],-0.112
same,glycan array binding signal (z-score),[21],-0.444
same,glycan array binding signal (z-score),[22],-0.948
same,glycan array binding signal (z-score),[23],-0.862
same,glycan array binding signal (z-score),[24],-0.807
same,glycan array binding signal (z-score),[25],0.878
same,glycan array binding signal (z-score),[26],0.267
same,glycan array binding signal (z-score),[27],-1.16
same,glycan array binding signal (z-score),[28],-0.283
same,glycan array binding signal (z-score),[29],-0.482
same,glycan array binding signal (z-score),[30],-0.735

# For reference, some entries already given:
binder,measurement,setting,value
B1,glycan array binding signal (z-score),[9],-0.726
same,glycan array binding signal (z-score),[10],4
